Reference: paper PMC5869712 (Scientific Reports, 2018)

System: IL-6-induced STAT3 phosphorylation (JAK1)
Assay: IL-6-induced pSTAT3 in total lymphocytes in hPBMCs, flow cytometry
Format: cell-based
Details: Homo sapiens, Lymphocyte

For `C[C@@H]1CCN(C(=O)CC#N)C[C@@H]1N(C)c1ncnc2[nH]ccc12` [Tofacitinib, reference compound], the IC50 was 73 nM.
